The campaign covered roughly 220,000 compounds. About 2,400 (1.1%) were called active. Only results without a clear call are listed here; the source files them as inconclusive. Calls follow the shape of the dose curve; as a rule, active = well fitted inhibition curve with a large enough effect; inconclusive = small, poorly fitted or top-dose-only effect, or effect the other way; inactive = no such curve, though single readings can be large or run the other way.
Assay: qHTS Multiplex Assay to Identify Dual Action Probes in a Cell Model of Huntington: Aggregate Formation (GFP); also: nearly all actives have a fitted effect of over 60% in size
Conditions: PC12 HttQ103-GFP aggregates, Acumen cytometry, 40 h
Potency is read from the fitted curve at half-maximal effect.

Row | SMILES | Potency
1 | O=[N+]([O-])c1cc([N+](=O)[O-])c(NCC2CCS(=O)(=O)C2)c([N+](=O)[O-])c1 (configuration not stated) | inconclusive: 35.5 µM
2 | CC(C)c1ccc(NC2CCN(C(=O)OC(C)(C)C)CC2)cc1 | inconclusive: 31.6 µM

Source: PubChem BioAssay AID1688 (National Center for Advancing Translational Sciences (NCATS), 2009)
